This note sets out measurements from US5622828.

Construct, isoform or probe ends are uncertain for at least one entry.

The target of this data set is T1, secretory phospholipase A2 (sPLA2) (Homo sapiens) (UniProt P14555).
T1 sequence: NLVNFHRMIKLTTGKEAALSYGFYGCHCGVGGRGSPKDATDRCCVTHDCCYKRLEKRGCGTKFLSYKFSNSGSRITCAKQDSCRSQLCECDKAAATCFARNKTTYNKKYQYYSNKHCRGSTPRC
Nature of the data set: inhibition of the protein. To be noted: inhibits sPLA2 enzymatic activity, purified recombinant protein, protein details: supplied by Eli Lilly, dose not given here.

Setting [1] is: 2'-NH2 all C and U, variant of NN19.

For “GGGAAAAGAAGACCGGCCGGCGCCAUAGCCGAGAUCCGAGGUGUUGAACGAUAGACCAACCGAGAA [NN19.11]”, the “functional effect of the aptamer” value under setting [1] was “active”.

As for “GGGAAAAGAAGACCGGCCGGCGCCAUAGCCGAGAUCCGAGGUGUUGAACGAUCCGAGAA [NN19.14]”, under setting [1], the “functional effect of the aptamer” value is listed as “active”.

As for “GGGAAAAGAAGACCGGCCGGCGCCAUAGCCGAGAUCCGAGGUGUUGAGACCAACCGAGAA [NN19.13]”, the “functional effect of the aptamer” value under setting [1] is listed as “active”.

Take “GGGAAAAGAAGACCGGCCGGCGCCAUAGCCGAGAUCCGAGGUGUUGCCGAGAA [NN19.15]”: under “2'-NH2 all C and U, Example 7: dose-dependent inhibition of PLA2-induced contraction of guinea pig lung pleural strips, variant of NN19”, the “functional effect of the aptamer” value was “active”.

As to “GGGAGCUCAGAAUAAACGCUCAACGCCUCAUGCCAAUGCGGGAGGGUGGGUGGUUCGACAUGAGGCCCGGAUCCGGC [86t]”, the “functional effect of the aptamer” value (printed 861) is reported as “active”.

Take “GGGAGCUCAGAAUAAACGCUCAAGCUCUGGGAUGAUGCCCACUGUCCAGCAUCUUCGACAUGAGGCCCGGAUCCGGC [87F]”: the “functional effect of the aptamer” value (2'-F all C and U, variant of 87) is recorded as “active”.

On to “GGGAGCUCAGAAUAAACGCUCAAGCUCUGGGAUGAUGCCCACUGUCCAGCAUCUUCGACAUGAGGCCCGGAUCCGGC [87]”, for which the “functional effect of the aptamer” value is “active”.

Turning to “GGGAGCUCAGAAUAAACGCUCAAGCUCUGGGAUGAUGCCCACUGUCCAGCAUCUUCGACAUGUGUAGCUAAACAGCUUUAGGA [87.7]”, the “functional effect of the aptamer” value (variant of 87) is on record as “active”.
